In the supplement of paper PMC10689618:
Where a name gives a salt, the structure may show the parent alone. The list shows a part of the results. Repeats are few or missing, and single values can be far off.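 Primary human fetal astrocytes engulfed labelled rat cortical synaptosomes, measured as a red/green ratio corrected for calcein live-cell signal and scaled to the plate median. Toxicity meant calcein falling over 30%; decreased phagocytosis meant below 70% of median above 5 µM.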

Legend:
Settings in all cases: 24 h
[1] = system: Human fetal astrocytes; assay: loss of total cells relative to no-compound high-control median (toxicity); higher = more toxic (fewer cells)
[2] = system: Human fetal astrocytes; assay: as above; remark: listed apart in the source
[3] = system: Human fetal astrocytes; assay: synaptosome phagocytosis (pHrodo/calcein intensity ratio) relative to plate median of data wells; higher = more phagocytosis
[4] = system: Human fetal astrocytes; assay: as above; remark: listed apart in the source

| Structure (SMILES) | loss of total cells ([1]; 1.39 µM) | loss of total cells ([1]; 2.78 µM) | loss of total cells ([1]; 5.56 µM) | loss of total cells ([1]; 11.11 µM) | loss of total cells ([1]; 22.22 µM) | loss of total cells ([2]; 1.39 µM) | loss of total cells ([2]; 2.78 µM) | loss of total cells ([2]; 5.56 µM) | loss of total cells ([2]; 11.11 µM) | loss of total cells ([2]; 22.22 µM) | synaptosome phagocytosis ([3]; 1.39 µM) | synaptosome phagocytosis ([3]; 2.78 µM) | synaptosome phagocytosis ([3]; 5.56 µM) | synaptosome phagocytosis ([3]; 11.11 µM) | synaptosome phagocytosis ([3]; 22.22 µM) | synaptosome phagocytosis ([4]; 1.39 µM) | synaptosome phagocytosis ([4]; 2.78 µM) | synaptosome phagocytosis ([4]; 5.56 µM) | synaptosome phagocytosis ([4]; 11.11 µM) | synaptosome phagocytosis ([4]; 22.22 µM) |
| --- | --- | --- | --- | --- | --- | --- | --- | --- | --- | --- | --- | --- | --- | --- | --- | --- | --- | --- | --- | --- |
| CCC(NC(C)C)C(O)c1ccc(O)c(O)c1 (stereo not given) [Isotharine mesylate] | -3.3% | -0.5% | 9.9% | 12.4% | 24.3% | -19.9% | -8.6% | -20.6% | 0.6% | 7.8% | 96.7% | 88.8% | 90.6% | 72.2% | 59.1% | 99.7% | 96% | 121% | 84.9% | 84.9% |
| Nc1c2c(nc3ccccc13)CCCC2O (stereo not given) [Hydroxytacrine maleate] | -9.6% | -5.1% | 3.3% | -29.1% | 12% | 10.5% | 15.5% | 9.4% | -2.1% | 18.9% | 99.8% | 100% | 99% | 105% | 105% | 116% | 111% | 115% | 121% | 134% |
| O=C(/C=C/c1ccc(O)cc1)c1ccc(O)cc1O [Isoliquiritigenin] | -8.1% | 3.2% | 14.6% | 21.9% | 13.1% | 4.9% | 9% | 1.5% | 18.9% | 23.7% | 118% | 130% | 122% | 77.5% | 55.8% | 126% | 119% | 98.6% | 115% | 112% |
| CN[C@H]1CC[C@@H](c2ccc(Cl)c(Cl)c2)c2ccccc21 [Sertraline hydrochloride] | -11.8% | -4.1% | -11.7% | 6.7% | 21.5% | -22.6% | -0.8% | 16.8% | 43% | 63.9% | 87.9% | 86.5% | 100% | 67.3% | 9% | 86.3% | 49% | 64.7% | 79.6% | 45.9% |
| Oc1ccc(O)cc1 [Hydroquinone] | -2.1% | -8.5% | 4.9% | -3.1% | -1.6% | -3.3% | 10.7% | 16.5% | -10.9% | 25.5% | 113% | 104% | 91.5% | 74.7% | 86.8% | 105% | 93.9% | 120% | 95.5% | 96% |
| CN(C)CCC(c1ccccc1)c1ccccn1 (stereo not given) [Pheniramine maleate] | -3.4% | -11.1% | -10.7% | -2.7% | -8.2% | -11.6% | -14.9% | 6.3% | -8.6% | -6.8% | 97.1% | 77.8% | 99.3% | 93.8% | 97.7% | 93.7% | 100% | 96.6% | 78.8% | 128% |
| N[C@H]1CONC1=O [L-Cycloserine] | -24.6% | -13.2% | -20.7% | -14.8% | -2.6% | -15.7% | -6.4% | -30.7% | -5.5% | 33.7% | 98% | 86.7% | 154% | 99.2% | 118% | 101% | 91.1% | 94.5% | 95.4% | 112% |
| CN1C(C)(C)CCCC1(C)C [Pempidine tartrate] | -31.8% | -10.4% | -16.4% | 4.8% | 9.3% | 11.2% | 6.1% | 6.5% | 2.1% | 12.9% | 97.9% | 111% | 109% | 92.7% | 97.1% | 84.5% | 85.9% | 101% | 102% | 97.4% |
| CN1C(=O)CC[C@H]1c1cccnc1 [(-)-Cotinine] | -23.1% | -12.9% | -28.1% | -20.2% | -7.1% | 6.2% | -22% | -7.7% | 2% | -7% | 113% | 111% | 116% | 108% | 121% | 124% | 81.4% | 92.4% | 115% | 83% |
| O=C1CN(/N=C/c2ccc(-c3ccc([N+](=O)[O-])cc3)o2)C(=O)N1 [Dantrolene sodium] | 5.4% | -12% | -3.3% | -6.7% | -3.2% | -33.9% | 9.5% | 16.1% | 46.9% | -2.2% | 89.8% | 105% | 98.5% | 127% | 86.1% | 103% | 79.9% | 105% | 101% | 116% |
| Clc1cccc(Cl)c1NC1=NCCN1 [Clonidine hydrochloride] | -18.7% | -6.9% | -18% | -10.3% | 13.9% | 15.7% | -15.9% | -3.5% | 4.9% | 27.1% | 109% | 110% | 92.7% | 98.5% | 95.6% | 114% | 98% | 113% | 113% | 140% |
| O=C1OC(=O)[C@H]2[C@@H]1[C@@H]1CC[C@H]2O1 [Norcantharidin] | -3.3% | 5.9% | -2.3% | 8.6% | 4.7% | 2.5% | 0.4% | 10.3% | 16.9% | 8.9% | 90.6% | 102% | 129% | 122% | 118% | 110% | 120% | 139% | 77.3% | 102% |

Entries of single compounds as entered above. Values in the order: loss of total cells ([1]; 1.39 µM) | loss of total cells ([1]; 2.78 µM) | loss of total cells ([1]; 5.56 µM) | loss of total cells ([1]; 11.11 µM) | loss of total cells ([1]; 22.22 µM) | loss of total cells ([2]; 1.39 µM) | loss of total cells ([2]; 2.78 µM) | loss of total cells ([2]; 5.56 µM) | loss of total cells ([2]; 11.11 µM) | loss of total cells ([2]; 22.22 µM) | synaptosome phagocytosis ([3]; 1.39 µM) | synaptosome phagocytosis ([3]; 2.78 µM) | synaptosome phagocytosis ([3]; 5.56 µM) | synaptosome phagocytosis ([3]; 11.11 µM) | synaptosome phagocytosis ([3]; 22.22 µM) | synaptosome phagocytosis ([4]; 1.39 µM) | synaptosome phagocytosis ([4]; 2.78 µM) | synaptosome phagocytosis ([4]; 5.56 µM) | synaptosome phagocytosis ([4]; 11.11 µM) | synaptosome phagocytosis ([4]; 22.22 µM)
CCC(NC(C)C)C(O)c1ccc(O)c(O)c1 (stereo not given) [Isotharine mesylate] is listed with -3.3% | -0.5% | 9.9% | 12.4% | 24.3% | -19.9% | -8.6% | -20.6% | 0.6% | 7.8% | 96.7% | 88.8% | 90.6% | 72.2% | 59.1% | 99.7% | 96% | 121% | 84.9% | 84.9%
CN[C@H]1CC[C@@H](c2ccc(Cl)c(Cl)c2)c2ccccc21 [Sertraline hydrochloride] is listed with -11.8% | -4.1% | -11.7% | 6.7% | 21.5% | -22.6% | -0.8% | 16.8% | 43% | 63.9% | 87.9% | 86.5% | 100% | 67.3% | 9% | 86.3% | 49% | 64.7% | 79.6% | 45.9%
